Source: patent US6603046B1, “Bis-aromatic a,β-unsaturated ketones” (Lica Pharmaceuticals A/S, priority 1992, dated 2003)
Where “and” joins values, the source holds several entries; their conditions need not be identical. Identical values can stand only once. The source gives many values for each of these; only a part stands here.

Test system: P. yoelii strain YM
Assay: P. yoelii strain YM infection in mice, parasitemia and mortality (Example 16)
Format: in vivo, BALB/c mice

Compound: C=CC(C)(C)c1cc(/C=C/C(=O)c2ccc(O)cc2)c(OC)cc1O [Licochalcone A, licochalcone A]
- Parasitemia, single mice (D + 4, 10 mg/kg i.p. 1 hour after infection, two times per day on D + 1 and D + 2): 0.1%
- Parasitemia, single mice (D + 4, one i.p. injection 10 mg/kg 3 hours before infection, 10 mg/kg): 1.0% and 2.0%
- % parasitemia, single mice (D + 4, orally 100 mg/kg/dose 3 and 24 h after infection, 100 mg/kg): 0.5% and 1.0% and 1.5%
- Parasitemia, single mice (D + 5, 10 mg/kg i.p. 1 hour after infection, two times per day on D + 1 and D + 2, 10 mg/kg): 0.1% and 0.5%
- Parasitemia, single mice (D + 5, one i.p. injection 10 mg/kg 3 hours before infection, 10 mg/kg): 5.0% and 6.0%
- Parasitemia, single mice (D + 6, 10 mg/kg i.p. 1 hour after infection, two times per day on D + 1 and D + 2): 0.5%
- Parasitemia, single mice (D + 6, one i.p. injection 10 mg/kg 3 hours before infection, 10 mg/kg): 22.0% and 21.0%
- Parasitemia, single mice (D + 7, 10 mg/kg i.p. 1 hour after infection, two times per day on D + 1 and D + 2, 10 mg/kg): 1.5% and 0.8%
- % parasitemia, single mice (D + 7, intraperitoneal Micro-Osmotic Pump 6 mg/100 μl/mouse, released during 7 days): 0.5% and 0%
- Parasitemia, single mice (D + 7, one i.p. injection 10 mg/kg 3 hours before infection, 10 mg/kg): 55.0% and 45.0%
- Parasitemia, single mice (D + 8, 10 mg/kg i.p. 1 hour after infection, two times per day on D + 1 and D + 2): 0.1%
- Parasitemia, single mice (D + 9, 10 mg/kg i.p. 1 hour after infection, two times per day on D + 1 and D + 2): 0.1%
- % parasitemia, single mice (D + 9, intraperitoneal Micro-Osmotic Pump 6 mg/100 μl/mouse, released during 7 days): 6% and 0%
- Parasitemia, single mice (D + 9, one i.p. injection 10 mg/kg 3 hours before infection, 10 mg/kg): 85.0% and 82.0%
- Parasitemia, single mice (D + 10, 10 mg/kg i.p. 1 hour after infection, two times per day on D + 1 and D + 2): 0.00%
- Parasitemia, single mice (D + 11, 10 mg/kg/day in 2 injections, days +1 to +6, 10 mg/kg/day): 67.0% and 71.0%
- Parasitemia, single mice (D + 11, 20 mg/kg/day in 2 injections, days +1 to +6, 20 mg/kg/day): 15.0% and 19.2%
- Parasitemia, single mice (D + 11, 40 mg/kg/day in 2 injections, days +1 to +6, 40 mg/kg/day): 50.0%
- Parasitemia, single mice (D + 12, 10 mg/kg/day in 2 injections, days +1 to +6, 10 mg/kg/day): 85.0% and 89.0%
- Parasitemia, single mice (D + 12, 20 mg/kg/day in 2 injections, days +1 to +6, 20 mg/kg/day): 23.0% and 26.0%
- Parasitemia, single mice (D + 12, 40 mg/kg/day in 2 injections, days +1 to +6, 40 mg/kg/day): 76.0% and 81.0%
- Parasitemia, single mice (D + 13, 10 mg/kg/day in 2 injections, days +1 to +6): 90.0%
- Parasitemia, single mice (D + 13, 20 mg/kg/day in 2 injections, days +1 to +6, 20 mg/kg/day): 12.0% and 15.0%
- Parasitemia, single mice (D + 13, 40 mg/kg/day in 2 injections, days +1 to +6, 40 mg/kg/day): 89.0% and 88.0%
- % parasitemia, single mice (D + 13, orally 100 mg/kg/dose 3 and 24 h after infection, 100 mg/kg): 5.0% and 8.0%
- Parasitemia, single mice (D + 14, 10 mg/kg/day in 2 injections, days +1 to +6): died
- Parasitemia, single mice (D + 14, 20 mg/kg/day in 2 injections, days +1 to +6, 20 mg/kg/day): 5.0% and 8.0%
- Parasitemia, single mice (D + 14, 40 mg/kg/day in 2 injections, days +1 to +6): died
- Parasitemia, single mice (D + 16, 20 mg/kg/day in 2 injections, days +1 to +6, 20 mg/kg/day): 0.1% and 0.5%
- % parasitemia, single mice (D + 16, orally 100 mg/kg/dose 3 and 24 h after infection): 0%
- Parasitemia, single mice (D + 18, 20 mg/kg/day in 2 injections, days +1 to +6): 0.0%
